Test results as given in publication PMC4129439 (eLife, 2014).

System: serum SAA
Test: LC-MS/MS of retinoids in SAA-enriched serum fraction after S. typhimurium infection
Set-up: species or system mouse
Settings: 24 hr after intraperitoneal S. typhimurium

Row | SMILES | detection in the SAA-enriched serum fraction (wild-type mice) | detection in the equivalent serum fraction (Saa1/2−/− mice)
1 | CC1=C(/C=C/C(C)=C/C=C/C(C)=C/C(=O)O)C(C)(C)CCC1 [retinoic acid] | not detected | 
2 | CC1=C(/C=C/C(C)=C/C=C/C(C)=C/CO)C(C)(C)CCC1 [retinol] |  | not detected
